# Measurements taken from paper PMC7950264.
# Chains of the proteins cited; added tags and fusions are not shown. Lines headed by an entry give the natural chain unless they say otherwise; changes in a name come on top. A line that says so, or that is headed by a name, gives the form on record, which may keep a tag or linker.
# pyruvate kinase M1 (P14618-2, form named): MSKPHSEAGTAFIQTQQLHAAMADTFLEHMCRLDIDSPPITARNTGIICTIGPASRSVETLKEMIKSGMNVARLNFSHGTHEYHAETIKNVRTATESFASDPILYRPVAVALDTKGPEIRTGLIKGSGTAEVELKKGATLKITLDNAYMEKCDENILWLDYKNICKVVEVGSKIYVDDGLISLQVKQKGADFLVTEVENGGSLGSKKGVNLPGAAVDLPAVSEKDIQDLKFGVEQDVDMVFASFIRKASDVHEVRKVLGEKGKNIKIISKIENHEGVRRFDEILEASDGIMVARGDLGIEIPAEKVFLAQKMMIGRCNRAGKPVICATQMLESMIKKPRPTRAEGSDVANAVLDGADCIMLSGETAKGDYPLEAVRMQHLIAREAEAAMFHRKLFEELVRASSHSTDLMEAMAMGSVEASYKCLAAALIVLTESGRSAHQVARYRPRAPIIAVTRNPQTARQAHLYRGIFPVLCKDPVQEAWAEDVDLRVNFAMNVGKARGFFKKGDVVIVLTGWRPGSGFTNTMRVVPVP
# These are yes or no findings as the source states them, for the method shown. In cells and extracts the contact can be indirect. Some results given as binding are weak or reduced against the parent protein; the word gives no strength.
# Biological target: T1, TRIM29 (human (endogenous in DLD-1 and SW480)) (UniProt Q14134)
# T1 sequence: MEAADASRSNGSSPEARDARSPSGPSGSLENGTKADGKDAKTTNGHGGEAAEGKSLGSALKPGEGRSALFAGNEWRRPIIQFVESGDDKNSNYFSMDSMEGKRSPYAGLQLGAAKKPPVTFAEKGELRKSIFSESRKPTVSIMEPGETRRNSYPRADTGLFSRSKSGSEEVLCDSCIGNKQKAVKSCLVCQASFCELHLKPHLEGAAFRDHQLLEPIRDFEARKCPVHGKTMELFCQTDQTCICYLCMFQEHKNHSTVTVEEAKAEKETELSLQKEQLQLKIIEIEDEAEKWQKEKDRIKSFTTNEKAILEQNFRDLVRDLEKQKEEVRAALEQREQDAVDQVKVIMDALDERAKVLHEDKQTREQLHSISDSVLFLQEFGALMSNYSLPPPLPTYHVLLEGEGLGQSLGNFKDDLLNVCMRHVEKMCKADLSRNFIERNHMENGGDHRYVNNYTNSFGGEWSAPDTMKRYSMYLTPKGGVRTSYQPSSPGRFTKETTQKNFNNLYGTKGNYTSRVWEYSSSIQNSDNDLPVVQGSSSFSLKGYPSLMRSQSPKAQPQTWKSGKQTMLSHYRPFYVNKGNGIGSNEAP
# Experiment: co-IP; reciprocal co-IP of endogenous proteins from SW480 and DLD-1 lysates; primary antibody and protein A/G beads at 4 C overnight, washed six times with 1% NP40, Western blot
substance,measurement,value
pyruvate kinase M1 (from UniProt P14618-2 1-531) (enzyme),binding,binds
